The supplement of paper PMC4604168 (melanoma cell lines)
The list shows a part of the results. Repeats are few or missing, and single values can be far off.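 Cells were imaged in 1,536-well plates, and nuclei stained with an antibody against cleaved PARP were counted against all DNA-stained nuclei to give the apoptosis fraction. Screening doses were chosen to leave most cells alive, and resting and induced cleaved-PARP levels differ strongly between cell lines.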

The compounds below were run on MEL-HO (assay: cleaved PARP positive nuclei fraction relative to DMSO control; melanoma cells; higher = more apoptosis). Settings: library dose: low library concentration; 72 h.

Point of comparison: `Cc1cc(Nc2cc(N3CCN(C)CC3)nc(Sc3ccc(NC(=O)C4CC4)cc3)n2)n[nH]1` [Tozasertib] + C[C@@H](Oc1cc(-c2cnn(C3CCNCC3)c2)cnc1N)c1c(Cl)ccc(F)c1Cl [Crizotinib] (first compound 0.006 µM, partner dose 0.2 µM), “cleaved PARP positive nuclei fraction” value 72.4%. Against it:
- CC[C@]1(O)C[C@H]2CN(CCc3c([nH]c4ccccc34)[C@@](C(=O)OC)(c3cc4c(cc3OC)N(C=O)[C@H]3[C@@](O)(C(=O)OC)[C@H](OC(C)=O)[C@]5(CC)C=CCN6CC[C@]43[C@@H]65)C2)C1 [vincristine] + CO[C@H]1C[C@@H]2CC[C@@H](C)[C@@](O)(O2)C(=O)C(=O)N2CCCC[C@H]2C(=O)O[C@H]([C@H](C)C[C@@H]2CC[C@@H](OCCO)[C@H](OC)C2)CC(=O)[C@H](C)/C=C(\C)[C@@H](O)[C@@H](OC)C(=O)[C@H](C)C[C@H](C)/C=C/C=C/C=C/1C [everolimus] (first compound 0.0001 µM, partner dose 0.02 µM) — higher, 79.4%
- COc1cc([C@@H]2c3cc4c(cc3[C@@H](O[C@@H]3O[C@@H]5CO[C@@H](C)O[C@H]5[C@H](O)[C@H]3O)[C@H]3COC(=O)[C@H]23)OCO4)cc(OC)c1O [etoposide] + CC1(C)CCC(c2ccc(Cl)cc2)=C(CN2CCN(c3ccc(C(=O)NS(=O)(=O)c4ccc(N[C@H](CCN5CCOCC5)CSc5ccccc5)c(S(=O)(=O)C(F)(F)F)c4)cc3)CC2)C1 [ABT263] (first compound 0.02 µM, partner dose 0.4 µM) — higher, 83.3%
- CC[C@]1(O)C[C@H]2CN(CCc3c([nH]c4ccccc34)[C@@](C(=O)OC)(c3cc4c(cc3OC)N(C=O)[C@H]3[C@@](O)(C(=O)OC)[C@H](OC(C)=O)[C@]5(CC)C=CCN6CC[C@]43[C@@H]65)C2)C1 [vincristine] + NC(=O)c1ccc(N(C(N)=O)c2c(F)cccc2F)nc1-c1ccc(F)cc1F [VX702] (first compound 0.0001 µM, partner dose 0.4 µM) — lower, 35.9%
- Cc1ccc(Nc2nccc(N(C)c3ccc4c(C)n(C)nc4c3)n2)cc1S(N)(=O)=O [Pazopanib] + C=CCNC1=C2C[C@@H](C)C[C@H](OC)[C@H](O)[C@@H](C)/C=C(\C)[C@H](OC(N)=O)[C@@H](OC)/C=C\C=C(/C)C(=O)NC(=CC1=O)C2=O [Tanespimycin] (first compound 0.4 µM, partner dose 0.002 µM) — higher, 83%
- O=C(Nc1cc(C(F)(F)F)cc(C(F)(F)F)c1)c1cc(Cl)ccc1O + Cn1c(=O)n(-c2ccc(C(C)(C)C#N)cc2)c2c3cc(-c4cnc5ccccc5c4)ccc3ncc21 [NVP-BEZ235] (first compound 0.016 µM, partner dose 0.004 µM) — lower, 57.6%
- Cc1cn(-c2cc(NC(=O)c3ccc(C)c(Nc4nccc(-c5cccnc5)n4)c3)cc(C(F)(F)F)c2)cn1 [nilotinib] + Cc1nc(Nc2ncc(C(=O)Nc3c(C)cccc3Cl)s2)cc(N2CCN(CCO)CC2)n1 [dasatanib] (first compound 0.2 µM, partner dose 0.004 µM) — lower, 44.5%
- Cc1cc(Nc2cc(N3CCN(C)CC3)nc(Sc3ccc(NC(=O)C4CC4)cc3)n2)n[nH]1 [Tozasertib] + O=C(O)c1ccc2c(c1)nc(Nc1cccc(Cl)c1)c1ccncc12 [CX4945] (first compound 0.006 µM, partner dose 0.4 µM) — higher, 133%
- O=C(Nc1cc(C(F)(F)F)cc(C(F)(F)F)c1)c1cc(Cl)ccc1O + CO[C@H]1C[C@@H]2CC[C@@H](C)[C@@](O)(O2)C(=O)C(=O)N2CCCC[C@H]2C(=O)O[C@H]([C@H](C)C[C@@H]2CC[C@@H](OCCO)[C@H](OC)C2)CC(=O)[C@H](C)/C=C(\C)[C@@H](O)[C@@H](OC)C(=O)[C@H](C)C[C@H](C)/C=C/C=C/C=C/1C [everolimus] (first compound 0.016 µM, partner dose 0.02 µM) — higher, 188%
- Cc1cc(Nc2cc(N3CCN(C)CC3)nc(Sc3ccc(NC(=O)C4CC4)cc3)n2)n[nH]1 [Tozasertib] + Nc1cccc2c1CN(C1CCC(=O)NC1=O)C2=O [lenalidomide] (first compound 0.006 µM, partner dose 1 µM) — lower, 60.8%
- O=C(Nc1cc(C(F)(F)F)cc(C(F)(F)F)c1)c1cc(Cl)ccc1O + Cn1nnc2c(C(N)=O)ncn2c1=O [temozolomide] (first compound 0.016 µM, partner dose 2 µM) — higher, 131%
- COc1cc([C@@H]2c3cc4c(cc3[C@@H](O[C@@H]3O[C@@H]5CO[C@@H](C)O[C@H]5[C@H](O)[C@H]3O)[C@H]3COC(=O)[C@H]23)OCO4)cc(OC)c1O [etoposide] + Cn1sc(=O)n(Cc2ccccc2)c1=O [TDZD-8] (first compound 0.02 µM, partner dose 0.4 µM) — lower, 21.9%
- Cc1cn(-c2cc(NC(=O)c3ccc(C)c(Nc4nccc(-c5cccnc5)n4)c3)cc(C(F)(F)F)c2)cn1 [nilotinib] + Nc1nc(F)nc2c1ncn2[C@@H]1O[C@H](CO)[C@@H](O)[C@@H]1O [fludarabine] (first compound 0.2 µM, partner dose 0.2 µM) — higher, 272%
- O=c1[nH]nc(Sc2ncc([N+](=O)[O-])s2)n1-c1ccc2c(c1)OCCO2 + CO[C@H]1C[C@@H]2CC[C@@H](C)[C@@](O)(O2)C(=O)C(=O)N2CCCC[C@H]2C(=O)O[C@H]([C@H](C)C[C@@H]2CC[C@@H](OCCO)[C@H](OC)C2)CC(=O)[C@H](C)/C=C(\C)[C@@H](O)[C@@H](OC)C(=O)[C@H](C)C[C@H](C)/C=C/C=C/C=C/1C [everolimus] (first compound 0.2 µM, partner dose 0.02 µM) — higher, 402%
- O=c1[nH]nc(Sc2ncc([N+](=O)[O-])s2)n1-c1ccc2c(c1)OCCO2 + Cn1nnc2c(C(N)=O)ncn2c1=O [temozolomide] (first compound 0.2 µM, partner dose 2 µM) — lower, 64.1%
- O=c1[nH]nc(Sc2ncc([N+](=O)[O-])s2)n1-c1ccc2c(c1)OCCO2 + NC(=O)c1ccc(N(C(N)=O)c2c(F)cccc2F)nc1-c1ccc(F)cc1F [VX702] (first compound 0.2 µM, partner dose 0.4 µM) — higher, 119%
- Cc1ccc(Nc2nccc(N(C)c3ccc4c(C)n(C)nc4c3)n2)cc1S(N)(=O)=O [Pazopanib] + CO[C@H]1C[C@@H]2CC[C@@H](C)[C@@](O)(O2)C(=O)C(=O)N2CCCC[C@H]2C(=O)O[C@H]([C@H](C)C[C@@H]2CC[C@@H](OCCO)[C@H](OC)C2)CC(=O)[C@H](C)/C=C(\C)[C@@H](O)[C@@H](OC)C(=O)[C@H](C)C[C@H](C)/C=C/C=C/C=C/1C [everolimus] (first compound 0.4 µM, partner dose 0.02 µM) — higher, 182%
- Cc1ccc(Nc2nccc(N(C)c3ccc4c(C)n(C)nc4c3)n2)cc1S(N)(=O)=O [Pazopanib] + CCCS(=O)(=O)Nc1ccc(F)c(C(=O)c2c[nH]c3ncc(Cl)cc23)c1F [PLX4720] (first compound 0.4 µM, partner dose 0.08 µM) — higher, 145%
- N#CC[C@H](C1CCCC1)n1cc(-c2ncnc3[nH]ccc23)cn1 [ruxolitinib] + OCc1c[nH]c2ccccc12 [Indole-3-carbinol] (first compound 1 µM, partner dose 0.8 µM) — lower, 46.1%
- Cc1ccc(Nc2nccc(N(C)c3ccc4c(C)n(C)nc4c3)n2)cc1S(N)(=O)=O [Pazopanib] + OCc1c[nH]c2ccccc12 [Indole-3-carbinol] (first compound 0.4 µM, partner dose 0.8 µM) — higher, 129%
- COc1cc([C@@H]2c3cc4c(cc3[C@@H](O[C@@H]3O[C@@H]5CO[C@@H](C)O[C@H]5[C@H](O)[C@H]3O)[C@H]3COC(=O)[C@H]23)OCO4)cc(OC)c1O [etoposide] + C[C@]1(O)C[C@@H](c2nc(-c3ccc4ccc(-c5ccccc5)nc4c3)c3c(N)nccn32)C1 [OSI906] (first compound 0.02 µM, partner dose 0.4 µM) — higher, 160%
- N#CC[C@H](C1CCCC1)n1cc(-c2ncnc3[nH]ccc23)cn1 [ruxolitinib] + CO[C@H]1C[C@@H]2CC[C@@H](C)[C@@](O)(O2)C(=O)C(=O)N2CCCC[C@H]2C(=O)O[C@H]([C@H](C)C[C@@H]2CC[C@@H](OCCO)[C@H](OC)C2)CC(=O)[C@H](C)/C=C(\C)[C@@H](O)[C@@H](OC)C(=O)[C@H](C)C[C@H](C)/C=C/C=C/C=C/1C [everolimus] (first compound 1 µM, partner dose 0.02 µM) — higher, 181%
- Cc1ccc(Nc2nccc(N(C)c3ccc4c(C)n(C)nc4c3)n2)cc1S(N)(=O)=O [Pazopanib] + Cn1nnc2c(C(N)=O)ncn2c1=O [temozolomide] (first compound 0.4 µM, partner dose 2 µM) — higher, 90%
- O=c1[nH]nc(Sc2ncc([N+](=O)[O-])s2)n1-c1ccc2c(c1)OCCO2 + CCCS(=O)(=O)Nc1ccc(F)c(C(=O)c2c[nH]c3ncc(Cl)cc23)c1F [PLX4720] (first compound 0.2 µM, partner dose 0.08 µM) — lower, 67.3%
- Cc1ccc(Nc2nccc(N(C)c3ccc4c(C)n(C)nc4c3)n2)cc1S(N)(=O)=O [Pazopanib] + CC(=O)c1c(C)c2cnc(Nc3ccc(N4CCNCC4)cn3)nc2n(C2CCCC2)c1=O [palbociclib] (first compound 0.4 µM, partner dose 0.04 µM) — higher, 105%
